Experimental data taken from patent publication US6521595B1, “Nonimmunosuppressive [γ-hydroxy-methylleucine4] cyclosporin A, hair growth stimulator and external composition for skin using the same” (LG Chemical, Ltd., priority 1999, dated 2003).
At least one compound was matched to its structure with a doubt left.

How the values were obtained:
[1] = test system: BALB/c mouse spleen cells (reacting) mixed with mitomycin treated C57BL/6 mouse spleen cells (stimulating); experiment: Mouse mixed lymphocyte reaction (MLR), 3H-thymidine incorporation, immunosuppressive test; type: cell-based; details: from MLR IC50 values
[2] = test system: C57BL/6 mice; experiment: In vivo hair growth promoting effects on shaved back of C57BL/6 mice; set-up: species or system mouse; details: seven week-old female C57BL/6 mice in telogen, 100 ul applied once a day for 30 days, compared to vehicle control
Procedure: Seven week-old, female C57BL/6 mice were housed in groups of 7 to 11 animals. Mice were in the telogen stage of the hair cycle when used, as indicated by the pinkish color of the skin.
The mice's hair of the region of back was shaved by a clipper. After a one day for adaptation 100 ul of [γ-hydroxy-methylleucine^4] cyclosporin A was applied on the shaved portion once a day for a period of 30 days. After determining the degree of hair growth by the naked eye, the results were photographed. […] In contrast, animals treated with the derivatives (the 11 derivatives mentioned in REFERENCE EXAMPLES 6 to 11) were almost at the level of the control group, having virtually no effects (data not shown).
The test expanded to the derivatives modified on No. 4 amino acid, methylleucine. The results of the hair growth-stimulating effects on the derivatives in which the original No. 4 amino acid, methylleucine, is substituted with the similarly structured methylisoleucine, methylvaline, leucine, isoleucine, methylalanine (REFERENCE EXAMPLES 1 to 5) are represented in FIG. 17 to FIG. 23, wherein the hair growth-stimulating effects of […], [methylvaline^4] (FIG. 20), [leucine^4] (FIG. 21), [isoleucine^4] (FIG. 22), [methylalanine^4]

Compound: C/C=C/C[C@@H](C)[C@@H](O)[C@H]1C(=O)N[C@@H](CC)C(=O)N(C)CC(=O)N(C)[C@@H](CC(C)(C)O)C(=O)N[C@@H](C(C)C)C(=O)N(C)[C@@H](CC(C)C)C(=O)N[C@@H](C)C(=O)N[C@H](C)C(=O)N(C)[C@@H](CC(C)C)C(=O)N(C)[C@@H](CC(C)C)C(=O)N(C)[C@@H](C(C)C)C(=O)N1C [[γ-hydroxy-methylleucine^4] cyclosporin A]
- decrease in immunosuppressive activity compared to cyclosporin A [1]: greater than 100 fold
- degree of hair growth (hair growth promoting effect) by the naked eye, photographed [2]: remarkable hair growth promoting effects
- degree of hair growth (hair growth promoting effect) by the naked eye, photographed ([2]; listed as [γ-hydroxy-methylleucine^4] cyclosporin): remarkable ability
